In PubChem BioAssay AID720504 (National Center for Advancing Translational Sciences (NCATS), 2013):
In all, about 360,000 compounds went through this assay and about 10,000 (2.8%) were called active. The shares of active, inactive and inconclusive entries below differ from those in the screen. Calls follow the shape of the dose curve; as a rule, active = well fitted inhibition curve with a large enough effect; inconclusive = small, poorly fitted or top-dose-only effect; inactive = flat fitted curve, though single readings scatter. Potencies beside an inconclusive call are fits to weak or partial responses and may not hold up.

By UniProt entry, the sequences of proteins in these tests, tags left out.
UniProt P53350, whole entry, looked up: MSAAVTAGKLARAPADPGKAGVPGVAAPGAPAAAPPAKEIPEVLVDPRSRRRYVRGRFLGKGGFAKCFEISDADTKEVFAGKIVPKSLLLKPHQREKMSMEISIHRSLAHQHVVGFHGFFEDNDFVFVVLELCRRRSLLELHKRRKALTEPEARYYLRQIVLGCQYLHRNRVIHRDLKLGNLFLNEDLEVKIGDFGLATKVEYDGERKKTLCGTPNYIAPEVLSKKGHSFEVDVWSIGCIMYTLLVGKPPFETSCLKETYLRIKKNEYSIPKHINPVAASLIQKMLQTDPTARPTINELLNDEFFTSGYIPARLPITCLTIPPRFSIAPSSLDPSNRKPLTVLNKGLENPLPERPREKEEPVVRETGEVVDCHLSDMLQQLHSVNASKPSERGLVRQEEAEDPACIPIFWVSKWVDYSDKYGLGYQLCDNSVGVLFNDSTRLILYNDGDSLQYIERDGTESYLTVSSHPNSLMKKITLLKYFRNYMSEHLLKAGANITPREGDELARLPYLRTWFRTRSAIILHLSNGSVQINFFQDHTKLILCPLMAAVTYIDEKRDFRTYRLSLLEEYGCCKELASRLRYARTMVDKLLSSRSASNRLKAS

Target: Serine/threonine-protein kinase PLK1 (Homo sapiens) (UniProt P53350)
Test: qHTS for Inhibitors of PLK1-PDB (polo-like kinase 1 - polo-box domain): Primary Screen; also: nearly all actives have a fitted effect of over 65% in size; as to max response, negative = inhibition: series mostly up to about 57 µM
Conditions: Plk1 PBD binding of FITC phosphopeptide, fluorescence polarization
% is scaled to controls: 0 for no effect and ±100 for the full control effect; potency is read from the fitted curve at half-maximal effect.

| Compound | Potency | max response, negative = inhibition |
| --- | --- | --- |
| COc1cccc(CNC(=O)c2c[nH]n3c(=O)c(Cl)c(C)nc23)c1 | inconclusive: 13.4 µM [inhibitor, partial curve] |  |
| O=C(c1ccoc1)N1CCN(c2cc(-c3cccnc3)nc3cc(-c4cccc(Cl)c4)nn23)CC1 | inconclusive: 21.2 µM [inhibitor, partial curve] |  |
| CCN(CC)CCNC(=S)Nc1ccc2nc(N3CCOCC3)cc(C)c2c1 | inconclusive: 18.9 µM [inhibitor, partial curve, poor fit] |  |
| CC(C)C(=O)Nc1nnc(NC(=S)Nc2ccccc2)s1 | inconclusive: 16.8 µM [inhibitor, partial curve] |  |
| CCCCNC(=S)NNc1c(Cl)cc(Cl)cc1Cl | inconclusive: 29.9 µM [inhibitor, partial curve] |  |
| O=C(c1cc(Sc2cccc(Cl)c2)nc2ccccc12)N1CCN(c2ccccn2)CC1 | inconclusive: 33.6 µM [inhibitor, partial curve] |  |
| CCOc1ccc(C(=O)NCC(=O)N2CCC3(CC2)NCCc2[nH]cnc23)cc1 | inconclusive: 23.8 µM [inhibitor, single point] |  |
| COc1ccc(Br)cc1/C=C(\C(=O)O)c1ccc(S(=O)(=O)N2CCCCC2)s1 | inconclusive: 29.9 µM [inhibitor, single point] |  |
| CCOc1cc(C2C(C(=O)c3ccco3)=C(O)C(=O)N2CC2CCCO2)ccc1O (stereo not drawn) |  | inactive: 0.873% |
| COc1ccc(CC(=O)NCc2n[nH]c(=S)n2-c2ccc(F)cc2)cc1 | inconclusive: 37.7 µM [inhibitor, single point] |  |
| O=C(O)c1ccc(N2C(=O)/C(=C/c3ccc(-c4ccc([N+](=O)[O-])cc4)o3)C=C2c2ccccc2)cc1 | active: 11.9 µM |  |
| O=C(NC1CCCCC1)Oc1cc2oc(=O)sc2cc1Br | active: 2.12 µM |  |
| CNC(=S)NNC(=O)c1sc2cc(C(F)(F)F)cnc2c1-c1cccnc1 | inconclusive: 37.7 µM [inhibitor, single point] |  |
| COc1cccc(-c2cnc3c(NC(C)=O)cc(-c4ccsc4)cn23)c1 | inconclusive: 23.8 µM [inhibitor, partial curve] |  |
| Cc1ccc(C(=O)NCC(=O)N2CCC(Cc3ccccc3)CC2)cc1 | inconclusive: 29.9 µM [inhibitor, single point] |  |
| CCCC(C)NC(=O)CSc1nc(-c2ccccc2)cn1N (stereo not drawn) | active: 26.7 µM |  |
| COC(=O)c1cc(CN2CCN(c3ccccc3C)CC2)ccc1O |  | inactive: -6.5% |
| CCCCNC(=O)n1c(SC)nc2ccccc21 |  | inconclusive: -32% [inhibitor] |
| O=c1nc2ccccc2c(NS(=O)(=O)c2ccc(Cl)cc2)n1-c1ccccc1 | inconclusive: 29.9 µM [inhibitor, partial curve] |  |
| O=C(NCCCn1ccnc1)C(=O)Nc1ccccc1 | active: 29.9 µM |  |
| COc1ccc(-c2cc(C(F)F)n3ncc(C(=O)N4CCc5ccccc54)c3n2)cc1 | active: 6.7 µM |  |
| O=C(NCc1cc(C(F)(F)F)ccc1Cl)c1cccc2c1C(=O)c1ccc(N3CCC(Cc4ccccc4)CC3)cc1S2(=O)=O | active: 23.8 µM |  |

Quoted from the listing:
Under Potency, `COc1cccc(CNC(=O)c2c[nH]n3c(=O)c(Cl)c(C)nc23)c1` has inconclusive: 13.4 µM [inhibitor, partial curve]
Under Potency, `CC(C)C(=O)Nc1nnc(NC(=S)Nc2ccccc2)s1` has inconclusive: 16.8 µM [inhibitor, partial curve]

The list continues.

| Compound | Potency | max response, negative = inhibition |
| --- | --- | --- |
| Cc1ccc(C(=O)Nc2nc(-c3ccco3)c(-c3ccco3)s2)o1 |  | inactive: -29.7% |
| COc1ccc(CC(=O)Nc2nc(C)cs2)cc1S(=O)(=O)N1CCOCC1 |  | inactive: -2.28% |
| O=C(Nc1ccc(S(=O)(=O)N2CCCC2)cc1)C1CC(=O)N(c2ccccc2)C1 (stereo not drawn) | inconclusive: 23.8 µM [inhibitor, single point] |  |
| O=C(CCN1c2ccccc2Sc2ccccc21)Nc1ccccc1 |  | inconclusive: -33.6% [inhibitor] |
| C#CCN(C[C@@H]1[C@@H](OC(=O)NCc2ccccc2F)[C@@H](OC(=O)NCc2ccccc2F)Cn2c(=O)ccc(=O)n21)S(=O)(=O)c1ccc(C)cc1 | inconclusive: 26.7 µM [inhibitor, partial curve] |  |
| COc1ccc(/C=C2\CCc3ccccc3C2=O)cc1Cn1nc(C)cc1C |  | inactive: 0.501% |
| COc1ccc(NC(=O)COC(=O)CCSc2ccccc2)cc1OC | inconclusive: 21.2 µM [inhibitor, partial curve] |  |
| CN(C(=O)CSc1cccc[n+]1[O-])C1CCCCC1 | inconclusive: 37.7 µM [inhibitor, partial curve] |  |
| N#Cc1ccc(C(c2nnnn2Cc2ccccc2)N2CCCC2)cc1 (stereo not drawn) | inconclusive: 23.8 µM [inhibitor, single point] |  |
| Cc1ccc(C(=O)OCc2cn(-c3ccccc3)nn2)cc1 | inconclusive: 37.7 µM [inhibitor, single point] |  |
| COC(=O)c1ccc2nc(-c3ccco3)c(Cc3cccc(F)c3)n2c1 | inconclusive: 23.8 µM [inhibitor, partial curve] |  |
| Cc1nc(SCC(=O)c2ccc(F)c(F)c2)[nH]c(=O)c1Oc1ccc(Cl)cc1 | inconclusive: 29.9 µM [inhibitor, single point] |  |
| Cc1ccc(N2CC(C(=O)N3CCC4(CC3)CC(=O)c3ccccc3O4)CC2=O)cc1 (stereo not drawn) |  | inactive: 3% |
| O=[N+]([O-])c1cc(CN2CCN(c3cccc(C(F)(F)F)c3)CC2)c2cccnc2c1O | inconclusive: 23.8 µM [inhibitor, single point] |  |
| Nc1ccc2cccc(O)c2c1 | inconclusive: 37.7 µM [inhibitor, partial curve, poor fit] |  |
| CCCc1ccccc1OCCNC(C)=O | active: 3.36 µM |  |
| COCCN(C(=O)COC(=O)Cc1coc2cc(C)ccc12)c1c(N)n(Cc2ccccc2)c(=O)[nH]c1=O |  | inactive: -9.92% |
| O=C(Nc1nnc(SCCN2CCOCC2)s1)C1CC(=O)N(c2ccc(F)cc2)C1 (stereo not drawn) |  | inactive: -28.1% |
| CN(C)c1ccc(C=C(C#N)C(=O)c2ccccc2)cc1Br | active: 0.844 µM |  |
| Cc1ccc(CSCCNS(=O)(=O)c2ccccc2)cc1 | inconclusive: 29.9 µM [inhibitor, partial curve] |  |
| COc1ccc2[nH]c3c(c2c1)CCNC3(C)CCc1ccc(Cl)nc1 (stereo not drawn) | inconclusive: 21.2 µM [inhibitor, partial curve] |  |
